PubChem BioAssay AID504744 – Drosophila RNAi Screening Center – 2011

Aim: 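Find genes whose loss alters insulin-driven dAkt phosphorylation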 (primary screen)
Cell system: Drosophila Kc167 cells
Knock-down reagent: long dsRNA against Drosophila genes, 250 ng dsRNA per well of a 384-well plate
Time to read-out: 3 days of knock-down, then overnight serum-free starvation before stimulation
Conditions: bovine insulin at 387 nM for 10 minutes after 12 h without serum
Measured: 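In-cell antibody fluorescence for phospho-dAkt in each well over DNA-dye signal, with log2 residuals expressed as z-scores adjusted for cell count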
Hit rule: 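Hit in the insulin screen when the two-replicate mean z-score is more extreme than plus or minus 2.5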
In all, the deposit lists about 23,000 reagents; shown is a random part of those that have a named target and a result. In the full data, 98 (0.43%) were called active. 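Only hit calls are given; the phospho-dAkt signals, z-scores and hit direction were not deposited.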 A plus sign joins genes that one reagent is predicted to hit.

gene	amplicon	Call
dah (discontinuous actin hexagon)	DRSC20320	inactive
CG15673	DRSC04263	inactive
Samuel	DRSC02156	inactive
Samuel	DRSC02401	inactive
Samuel	DRSC02402	inactive
Samuel	DRSC21731	inactive
l(2)gd1 (lethal (2) giant discs 1)	DRSC02773	inactive
Alms1b + Alms1a	DRSC18559	inactive
CG4617	DRSC18377	inactive
mus302 (mutagen-sensitive 302)	DRSC09905	inactive
CG31959 (retired record)	DRSC22912	inactive
mtTFB1 + Ccdc56	DRSC10809	inactive
SecS (Sec synthetase)	DRSC12222	inactive
Fmo-2 (Flavin-containing monooxygenase 2)	DRSC04983	inactive
Obp56g (Odorant-binding protein 56g)	DRSC06432	inactive
CG13070	DRSC09953	inactive
CG14260	DRSC14755	inactive
fd3F (retired record) + Crg-1	DRSC17283	inactive
Tdh (L-threonine dehydrogenase)	DRSC11788	inactive
CG10702	DRSC02097	inactive
Tsp42En (Tetraspanin 42En)	DRSC06185	inactive
CG15599	DRSC19668	inactive
Ndc1 (Nuclear division cycle 1)	DRSC15895	inactive
Obp83a (Odorant-binding protein 83a)	DRSC12362	inactive
CG30154	DRSC05889	inactive
NT1 (Neurotrophin 1)	DRSC08530	inactive
NT1 (Neurotrophin 1)	DRSC22895	inactive
Sod1 (Superoxide dismutase 1)	DRSC11286	inactive
Gr43a (Gustatory receptor 43a)	DRSC06658	inactive
mRpL1 (mitochondrial ribosomal protein L1)	DRSC16251	inactive
GatB (Glutamyl-tRNA amidotransferase, subunit B)	DRSC15807	inactive
sick (sickie)	DRSC02090	inactive
sick (sickie)	DRSC02301	inactive
sick (sickie)	DRSC02302	inactive
sick (sickie)	DRSC02303	inactive
sick (sickie)	DRSC02306	inactive
CG17104	DRSC02573	inactive
CG5070	DRSC19932	inactive
CG33467	DRSC05525	inactive
CG33467	DRSC22651	inactive
Inx6 (Innexin 6)	DRSC20579	inactive
CG7148	DRSC11802	inactive
east (enhanced adult sensory threshold)	DRSC18770	inactive
Osi13 (Osiris 13)	DRSC12281	inactive
Polr2K (RNA polymerase II, I and III subunit K)	DRSC05535	inactive
CG15824	DRSC00473	inactive
Ser (Serrate)	DRSC16856	inactive
CG9286	DRSC16467	inactive
CG17742 (retired record)	DRSC10285	inactive
CG6765	DRSC10706	inactive
CR11386 + CR33222	DRSC17781	inactive
CG33235	DRSC19641	inactive
CG31460	DRSC14370	inactive
CG42583	DRSC22937	inactive
CG13516	DRSC04159	inactive
Ac76E (Adenylyl cyclase 76E)	DRSC09642	inactive
Ac76E (Adenylyl cyclase 76E)	DRSC09662	inactive
CG12643	DRSC17849	inactive
Alp2 (Alkaline phosphatase 2)	DRSC04354	inactive
mr (morula)	DRSC04332	inactive
mr (morula)	DRSC22856	inactive
mRpL11 (mitochondrial ribosomal protein L11)	DRSC15482	inactive
RpL31 (Ribosomal protein L31)	DRSC06716	inactive
CG17271	DRSC15210	inactive
CG17271	DRSC22629	inactive
mspo (M-spondin)	DRSC07652	inactive
CG32462	DRSC11851	inactive
rgr (regular)	DRSC06487	inactive
rgr (regular)	DRSC07229	inactive
CG13243	DRSC01920	inactive
CG5412	DRSC15796	inactive
Gr61a (Gustatory receptor 61a)	DRSC08358	inactive
CG34288	DRSC13564	inactive
CR33318 (pseudo)	DRSC22949	inactive
eIF3a (eukaryotic translation initiation factor 3 subunit a)	DRSC12339	inactive
CG15356	DRSC00386	inactive
CG13202	DRSC06326	inactive
mRpL42 (mitochondrial ribosomal protein L42)	DRSC06235	inactive
ppk (pickpocket)	DRSC03595	inactive
Ca-beta (Ca2+-channel-protein-beta-subunit)	DRSC02406	inactive
Ca-beta (Ca2+-channel-protein-beta-subunit)	DRSC02407	inactive
Ca-beta (Ca2+-channel-protein-beta-subunit)	DRSC03285	inactive
Ca-beta (Ca2+-channel-protein-beta-subunit)	DRSC21432	inactive
Oct-TyrR (Octopamine-Tyramine receptor)	DRSC11883	inactive
IleRS-m (Isoleucyl-tRNA synthetase, mitochondrial)	DRSC10506	inactive
Hacl (2-hydroxyacyl-CoA lyase)	DRSC06061	inactive
CG17163	DRSC20901	inactive
CG44837	DRSC10133	inactive
CG44837	DRSC10558	inactive
OXA1L (OXA1L mitochondrial inner membrane protein)	DRSC09672	inactive
Muc4B (Mucin 4B)	DRSC18062	inactive
Muc4B (Mucin 4B)	DRSC18063	inactive
Obp50c + Obp50b	DRSC05482	inactive
CG42747	DRSC10209	inactive
CG42747	DRSC10210	inactive
Mettl3 (Methyltransferase like 3)	DRSC15921	inactive
Prat (Phosphoribosylamidotransferase)	DRSC16797	inactive
CG15130	DRSC02430	inactive
CG9107	DRSC03138	inactive
Klp3A (Kinesin-like protein at 3A)	DRSC18676	inactive
Klp3A (Kinesin-like protein at 3A)	DRSC21625	inactive
CG5854	DRSC15894	inactive
hbt (headbutt)	DRSC02503	inactive
CG9123	DRSC20156	inactive
IFT43 (Intraflagellar transport 43)	DRSC02892	inactive
beta-Spec (beta Spectrin)	DRSC20311	inactive
wcy (wacky)	DRSC20132	inactive
BRWD3	DRSC15369	inactive
BRWD3	DRSC16032	inactive
Nopp140	DRSC11872	inactive
Cortactin	DRSC16612	inactive
Rbbp5 + CG6434 (retired record)	DRSC10635	inactive
CIAPIN1 (Cytokine induced apoptosis inhibitor 1)	DRSC03559	inactive
FAM21 (Family with sequence similarity 21)	DRSC06623	inactive
CG13050	DRSC09931	inactive
CG1663	DRSC06613	inactive
CG1663	DRSC22488	inactive
Rbcn-3A (Rabconnectin-3A)	DRSC18314	inactive
Spn43Ad (Serpin 43Ad)	DRSC06770	inactive
metro (menage a trois)	DRSC06341	inactive
metro (menage a trois)	DRSC06725	inactive
cad (caudal)	DRSC03502	inactive
TfIIS (RNA polymerase II elongation factor)	DRSC03455	inactive
P5CS (Delta[1]-pyrroline-5-carboxylate synthase)	DRSC11831	inactive
P5CS (Delta[1]-pyrroline-5-carboxylate synthase)	DRSC11832	inactive
CG33978	DRSC17106	inactive
CG15446	DRSC20518	inactive
CG12948	DRSC14576	inactive
alphaTub67C (alpha-Tubulin at 67C)	DRSC11321	inactive
Rbp6 (RNA-binding protein 6)	DRSC09462	inactive
Rbp6 (RNA-binding protein 6)	DRSC09464	inactive
Rbp6 (RNA-binding protein 6)	DRSC10072	inactive
Rbp6 (RNA-binding protein 6)	DRSC10073	inactive
Rbp6 (RNA-binding protein 6)	DRSC10662	inactive
Ir67c (Ionotropic receptor 67c)	DRSC22097	inactive
l(2)09851 (lethal (2) 09851)	DRSC04858	inactive
neb (nebbish)	DRSC03577	inactive
CG1636	DRSC18111	inactive
Jhbp11 (Juvenile hormone binding protein 11)	DRSC15183	inactive
spt4	DRSC07696	inactive
iotaTry (iotaTrypsin)	DRSC07634	inactive
Hsp70Bc (Heat shock protein 70 Bc)	DRSC16053	inactive
RecQ4 (RecQ4 helicase)	DRSC11265	inactive
Cdc42 (Cell division cycle 42)	DRSC20228	inactive
CG13694	DRSC00363	inactive
CG14641	DRSC12227	inactive
rhea	DRSC11300	inactive
Vps50 (Vacuolar protein sorting 50)	DRSC06910	inactive
CG14185	DRSC10184	inactive
CG33288	DRSC11484	inactive
l(2)k09913 (lethal (2) k09913)	DRSC04699	inactive
CG11458	DRSC11666	inactive
CG30109 + CG30108	DRSC05674	inactive
tadr (torn and diminished rhabdomeres)	DRSC03177	inactive
B-H1 (BarH1)	DRSC19334	inactive
B-H1 (BarH1)	DRSC21922	inactive
t-Grip84 (testis-specific gamma-tubulin ring protein 84)	DRSC10904	inactive

Quoted from the listing for reference:
gene	amplicon	Call
IleRS-m (Isoleucyl-tRNA synthetase, mitochondrial)	DRSC10506	inactive
Hacl (2-hydroxyacyl-CoA lyase)	DRSC06061	inactive
CG17163	DRSC20901	inactive
CG44837	DRSC10133	inactive
CG44837	DRSC10558	inactive
OXA1L (OXA1L mitochondrial inner membrane protein)	DRSC09672	inactive
Muc4B (Mucin 4B)	DRSC18062	inactive
Muc4B (Mucin 4B)	DRSC18063	inactive
